Experimental data: PubChem BioAssay AID493246 (Drosophila RNAi Screening Center, 2011)
The screen tested about 21,000 reagents; this is a random part of those that have a named target and a result. Over the whole deposit, 429 (2%) were called active. 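Values are raw and not normalised between plates; calls rest on per-plate z-scores that were not deposited.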 A plus sign joins genes that one reagent is predicted to hit. No sequences are given here. The record does not give: the amount of reagent, the time to read-out.

Test: 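Genes fly cells need to grow and stay alive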 (primary screen)
Cells: Drosophila Kc and S2R+ cells
Knock-down reagent: long dsRNA against Drosophila genes
Read-out: 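Raw, unnormalised count of remaining cells in each well; per-plate z-scores of cell number underlie the calls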
Scale: Kc cell number and S2R+ cell number: higher = more cells remaining
Hit rule: 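Active when the per-plate z-score of cell number is 3 or more in the direction of fewer cells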

Target gene	amplicon	Kc cell number, rep 1	Kc cell number, rep 2	S2R+ cell number, rep 1	S2R+ cell number, rep 2	Outcome
ND-23	DRSC15526	1.54e6	1.63e6	9.24e5	1.03e6	inactive
CG12828	DRSC06177	1.45e6	1.50e6	1.22e6	1.28e6	inactive
CG34382	DRSC08999	1.28e6	1.43e6	1.11e6	1.25e6	inactive
CG34382	DRSC10166	1.37e6	1.61e6	1.29e6	1.31e6	inactive
CG34382	DRSC10167	1.47e6	1.89e6	1.20e6	1.25e6	inactive
CG15155	DRSC02456	1.64e6	1.61e6	1.37e6	1.54e6	inactive
Ir60e	DRSC04227	1.48e6	1.60e6	1.34e6	1.49e6	inactive
tay	DRSC20142	5.43e5		8.84e5		inactive
CG8089	DRSC07074	1.62e6	1.67e6	1.37e6	1.40e6	inactive
PIG-N	DRSC06837	1.48e6	1.54e6	1.23e6	1.33e6	inactive
CG42634 + CG42635	DRSC02450	1.61e6	1.65e6	1.33e6	1.50e6	inactive
CG4438	DRSC02746	1.55e6	1.60e6	1.12e6	1.33e6	inactive
CG4424	DRSC15576	1.46e6	1.54e6	1.10e6	1.09e6	inactive
ytr	DRSC04306	1.38e6	1.45e6	1.13e6	1.16e6	inactive
CG34338	DRSC17535	1.32e6	1.38e6	1.02e6	1.06e6	inactive
blw	DRSC04675	8.15e5	8.58e5	8.76e5	1.10e6	active
CG8117	DRSC20082	1.70e6	1.64e6	9.98e5	1.06e6	inactive
CG31031 (retired record)	DRSC13964	1.15e6	1.58e6	1.14e6	1.16e6	inactive
Icmt	DRSC09834	1.31e6	1.35e6	1.23e6	1.30e6	inactive
CG7945	DRSC10934	1.40e6	1.43e6	1.15e6	1.23e6	inactive
Bcs1	DRSC02789	1.51e6	1.57e6	1.12e6	1.26e6	inactive

Reprinted from the entries so far, 9 entries:
Target gene	amplicon	Kc cell number, rep 1	Kc cell number, rep 2	S2R+ cell number, rep 1	S2R+ cell number, rep 2	Outcome
CG42634 + CG42635	DRSC02450	1.61e6	1.65e6	1.33e6	1.50e6	inactive
CG4438	DRSC02746	1.55e6	1.60e6	1.12e6	1.33e6	inactive
CG4424	DRSC15576	1.46e6	1.54e6	1.10e6	1.09e6	inactive
ytr	DRSC04306	1.38e6	1.45e6	1.13e6	1.16e6	inactive
CG34338	DRSC17535	1.32e6	1.38e6	1.02e6	1.06e6	inactive
blw	DRSC04675	8.15e5	8.58e5	8.76e5	1.10e6	active
CG8117	DRSC20082	1.70e6	1.64e6	9.98e5	1.06e6	inactive
CG31031 (retired record)	DRSC13964	1.15e6	1.58e6	1.14e6	1.16e6	inactive
Icmt	DRSC09834	1.31e6	1.35e6	1.23e6	1.30e6	inactive

More records:
Target gene	amplicon	Kc cell number, rep 1	Kc cell number, rep 2	S2R+ cell number, rep 1	S2R+ cell number, rep 2	Outcome
CG5217	DRSC15740	1.58e6	1.55e6	1.11e6	1.21e6	inactive
mtgo	DRSC02245	1.41e6	1.33e6	6.94e5	6.63e5	active
mtgo	DRSC02246	1.63e6	1.62e6	9.91e5	1.12e6	inactive
mtgo	DRSC02769	1.46e6	1.54e6	1.37e6	1.37e6	inactive
Ars2	DRSC04893	1.26e6	1.36e6	9.55e5	1.03e6	inactive
CG5506	DRSC10511	1.27e6	1.54e6	1.38e6	1.45e6	inactive
CG32681	DRSC17646	1.26e6	1.66e6	1.16e6	1.17e6	inactive
Asx	DRSC05924	1.36e6	1.46e6	1.04e6	1.11e6	inactive
CG15080	DRSC06511	1.97e6	1.87e6	1.27e6	1.45e6	inactive
CG17207	DRSC15198	1.37e6	1.36e6	1.26e6	1.32e6	inactive
Ca-alpha1T	DRSC17842	1.52e6	1.49e6	1.08e6	1.18e6	inactive
Ca-alpha1T	DRSC18103	1.39e6	1.40e6	1.05e6	1.17e6	inactive
Ca-alpha1T	DRSC18356	1.55e6	1.53e6	1.10e6	1.19e6	inactive
Ca-alpha1T	DRSC18357	1.60e6	1.58e6	1.05e6	1.22e6	inactive
Prosbeta4R1	DRSC00502	1.58e6	1.52e6	1.11e6	1.29e6	inactive
NK7.1	DRSC16755	1.57e6	1.63e6	1.18e6	1.24e6	inactive
CG14459	DRSC11719	8.47e5	5.90e5	4.81e5	5.53e5	active
CG17122	DRSC10245	1.51e6	1.68e6	1.22e6	1.32e6	inactive
Prim2	DRSC11610	1.55e6	1.62e6	1.03e6	1.11e6	inactive
CG33136	DRSC05744	6.05e5		6.50e5		inactive
CG15369	DRSC18041	1.59e6	1.60e6	9.94e5	1.11e6	inactive
Ugt49B2	DRSC16049	1.47e6	1.53e6	1.01e6	9.70e5	inactive
Dek	DRSC07418	1.41e6	1.43e6	1.04e6	1.09e6	inactive
scra	DRSC07679	1.19e6	1.38e6	9.76e5	1.03e6	inactive
CG5355	DRSC02844	1.42e6	1.43e6	1.17e6	1.23e6	inactive
CG5267	DRSC06928	1.59e6	1.56e6	1.22e6	1.34e6	inactive
Ak6	DRSC07274	1.62e6	1.70e6	1.40e6	1.43e6	inactive
Cht8	DRSC04546	1.57e6	1.67e6	1.28e6	4.08e5	inactive
Tdh	DRSC11788	1.89e6	1.92e6	1.18e6	1.30e6	inactive
Coq7 + shf	DRSC18448	1.58e6	1.51e6	1.10e6	1.18e6	inactive
CG15404	DRSC00418	1.63e6	1.65e6	1.23e6	1.35e6	inactive
Droj2	DRSC16450	1.54e6	1.68e6	1.28e6	1.39e6	inactive
CG42331	DRSC16126	1.53e6	1.45e6	9.26e5	1.07e6	inactive
CG14687	DRSC14910	1.45e6	1.58e6	1.33e6	1.46e6	inactive
CG15357	DRSC00387	1.47e6	1.53e6	1.07e6	1.21e6	inactive
Tbh	DRSC18723	1.49e6	1.48e6	1.04e6	1.09e6	inactive
Ntmt	DRSC06624	1.85e6	1.83e6	1.49e6	1.66e6	inactive
mei-W68	DRSC07649	1.76e6	1.77e6	1.30e6	1.48e6	inactive
